Test results published in patent EP0712040B1, “Method for processing silver halide photographic light-sensitive material” (KONICA CORPORATION, priority 1994, dated 1996).

Assay: Yellow stain at unexposed area of processed film after dark storage (Preparation Example 2)
Details: additive in stabilizer 2 g/l (Formalin 5 ml/l), stored in dark 10 days at 75°C, RH 10%, difference to before storage

With Dimethylolguanidine [F-4-1] the Yellow stain density was 0.03.

For `OCNc1nc(NCO)nc(NCO)n1` [F-3-1, Trimethylolmelamine], the Yellow stain density was 0.03.
